Test system: MCF-7 (human breast cancer)
Assay: Anticancer MTT assay, breast cancer cells
Format: cell-based
Conditions: MCF7, read-out: Anticancer IC50
How it was run: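 MCF-7 cells grown in DMEM with 10% FBS, penicillin and streptomycin at 37°C in 5% CO₂. About 5000 cells/well were exposed to test compound at 50-500 µg/mL (1 mg/ml DMSO working solution, 0.45-micron filtered) for 24, 48 or 72 h. MTT was added for 2 h, then lysis buffer for 4 h, and A570 was read. Viability = mean OD/control OD × 100.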

For `COc1cccc2c1C(=O)c1c(O)c3c(c(O)c1C2=O)C[C@@](O)(C(=O)CO)C[C@@H]3O[C@H]1C[C@H](N)[C@H](O)[C@H](C)O1` [Doxorubicin], which IC50 is on record?
The IC50 was 1020 nM.
